Test results taken from paper PMC8317666 (Chemical Science, 2021).
Non-standard residues stand in square brackets, D forms with d. Dha = C=C(N)C(=O)O

Assay: general procedure: Fmoc solid-phase peptide synthesis
Details: late stage modification step

| Substance | step yield [%] |
| --- | --- |
| Ac-GP[Dha]F-NH2 | 51.2 |
| H-G[Dha]HWSYGMRPK-OH | 22.7 |
